# Results taken from patent publication EP4631498A1, “EYE DROP-TYPE PHARMACEUTICAL COMPOSITION CONTAINING ENVOGLIFLOZIN” (Daewoong Therapeutics Inc., priority 2022, dated 2024).
# At least one read-out could not be matched to a standard name with certainty.
# Experiment: Saturation solubility of enavogliflozin in aqueous excipient solutions (HPLC)
# Assay type: physicochemical
# Settings: at maximum amounts (7.0 w/v% vs 5.0 w/v%)
# Description: According to Table 1 below, enavogliflozin in the amount corresponding to each standard solution and 70 mL of methanol were placed in a volumetric flask and then completely dissolved under ultrasonic agitation. Methanol was added thereto to adjust the total volume to 100 mL. The resulting solution was taken and filtered through a 0.45 µm RC (Regenerated Cellulose) membrane filter. The first 2 mL was discarded and then the filtrate was used as a standard solution. […]
# The peak areas of the standard and test solutions were analyzed under the following HPLC conditions. • Detector: UV spectrophotometer (wavelength: 225 nm) • Column: Capcellpak C18 (4.6 x 250 mm, 5 µm) • Column temperature: about 35°C • Sample temperature: about 25°C • Mobile phase: Buffer solution : acetonitrile = 25 : 75 (v/v) (Buffer solution: prepared by dissolving 100 µl of trifluoroacetic acid in 1000 mL of water) • Flow rate: 1.0 mL/min • Injection volume: 10 µL • Analysis time: about 20 minutes
# Polyoxyl 40 stearate (Myrj™ S40) was dissolved in 5 mL of purified water at the concentration of 7.0 w/v% and then enavogliflozin was added thereto until it was no longer dissolved, followed by stirring for approximately 12 hours. Thereafter, the degree of solubilization was evaluated in the same manner as in Example 1.
smiles,measurement,value
"OC[C@H]1O[C@@H](c2cc(Cc3ccc(C4CC4)cc3)c(Cl)c3c2CCO3)[C@H](O)[C@@H](O)[C@@H]1O [enavogliflozin, Enavogliflozin]",Solubilization by polyoxyl 40 stearate compared with Kolliphor™ EL,about twice as much
